Measured values from PubChem BioAssay AID2685 (National Center for Advancing Translational Sciences (NCATS), 2010).
Hit rate of the full screen: of about 320,000 compounds, about 2,100 (0.66%) were called active. Inconclusive means that the source gave no clear call. Such entries were picked first, then a sample of the others. Calls come from the whole dose curve; as a rule, active = well fitted inhibition curve with a large enough effect in the signal ratio, with a control signal flat (not every such curve was filed as active); inconclusive = small, poorly fitted or top-dose-only effect, or effect the other way, or a change in a side signal; inactive = flat fitted curve, though single readings scatter; the % refers to the signal ratio. Potencies beside an inconclusive call are fits to weak or partial responses and may not hold up.

Test: qHTS Assay for Lipid Storage Modulators in Drosophila S3 Cells
Details: BODIPY lipid droplet fluorescence, 18-24 h, cells fed with added oleic acid; lipid storage change, negative = inhibition: at 46.1 µM (top of the series) unless noted
Method in brief: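 Drosophila S3 cells loaded with oleic acid (400 uM, as added) and compounds at several concentrations; lipid droplets imaged by 488-nm laser-scanning cytometry, 500–530 nm intensity and object ratio to cell channel. Percent activity normalized to 20 uM Triacsin C.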
% is set by controls: 0 for no effect and ±100 for the full control effect; potency is the fitted concentration of half-maximal effect.

| Compound | Potency | lipid storage change, negative = inhibition |
| --- | --- | --- |
| COc1ccc(/C=N/NC(=O)c2c(-c3ccccc3)noc2C)cc1[N+](=O)[O-] | inconclusive: 5.8 µM [activator, full curve] |  |
| COCc1ccc(C(=O)N2CCCC(CNC(=O)c3ccc(F)cc3)C2)o1 (centres undefined) |  | inconclusive: -33% |
| Cc1nn(-c2ccc(F)cc2)c(Cl)c1C(=O)N(C)CC(=O)Nc1cccc(F)c1 |  | inconclusive |
| Cc1ccccc1N(Cc1cc(=O)[nH]c2ccccc12)C(=O)CCl |  | inactive |
| CCc1noc(C)c1C(=O)N1CCCC(CCC(=O)NCc2ccc(F)c(F)c2)C1 (centres undefined) |  | inconclusive: -30.2% |
| COc1cc(CCN2C(=O)N[C@@H](CCc3ccccc3)C(C(C)=O)=C2C)cc(OC)c1OC |  | inconclusive: 22.2% |
| CC(C)c1ccc(CNC(=O)CSCC(=O)Nc2ccc3ccccc3c2)cc1 |  | inconclusive: -43.1% |
| COc1ccc(S(=O)(=O)N(C)CC(=O)NCc2ccc3c(c2)OCO3)cc1 | active: 2.06 µM |  |
| CCN(CC)c1ccc(NC(=S)NC(=O)C2CCC2)cc1 | active: 4.11 µM |  |
| CCn1c(SCC(=O)N2CCCC(C)C2)nnc1-c1ccco1 (centres undefined) |  | inconclusive: 28.1% |
| CCOc1ccc(NC(=O)c2cc(F)c(F)cc2Cl)cc1OCC |  | inconclusive: 24% |
| CCCCNC(=O)c1sc2ncnc(N3CCc4ccccc4C3)c2c1C |  | inconclusive: -29.9% |
| Cc1ccc(C(=O)N[C@@H](Cc2ccccc2)C(=O)N2CCC3(CC2)NCCc2[nH]cnc23)cc1C |  | inconclusive: 10.7% |
| CCOCc1nnc(NC(=O)c2ccc(NC(C)=O)cc2)s1 |  | inconclusive: -34.2% |
| CC(=O)N1N=C(c2ccccc2)CC1c1ccccc1 (centres undefined) |  | inconclusive: 8.84% |
| COc1ccccc1C(CNC(=O)c1ccc(OCc2c(C)noc2C)cc1)N1CCCC1 (centres undefined) |  | inconclusive: 5.12% |
| COc1ccc(NC2CCCN(C(=O)CSc3ccccc3)C2)cc1OC (centres undefined) | inconclusive: 13 µM [falling, single point] |  |
| CN1CCN(c2ccc(NC(=O)CN3CCOCC3)cc2F)CC1 |  | inconclusive: -42.5% |
| O=C(NCC(=O)N1CCCCC1)c1ccc2ccccc2c1 | inconclusive: 3.26 µM [activator, full curve] |  |
| O=C1CCCC2=C1C1O[C@](CCCCN3C(=O)c4ccccc4C3=O)(Cc3c1ccc1ccccc31)O2 |  | inconclusive: 0.873% [at 9.22 µM] |
| CC(C)NC(=O)c1sc(=S)n2c1[nH]c(=O)c1ccc(C(=O)NCCc3ccc(Cl)cc3)cc12 | inconclusive: 1.03 µM [falling, full curve] |  |
| O=C(c1ccccc1Cl)N1CCN(S(=O)(=O)N2CCCCC2)CC1 | inconclusive: 25.9 µM [activator, single point] |  |
| CCc1ccc(-c2nc(CS(=O)CC(=O)NCCCN3CCOCC3)c(C)o2)cc1 (centres undefined) | inconclusive: 29.1 µM [activator, single point] |  |
| COc1cccc2c1cc1c(=O)n(CC(=O)N3CCC(C)CC3)nc(C)n12 |  | inconclusive: -27.7% |
| Cc1nc(-c2nc(-c3c(C(=O)NNC(=O)Nc4ccccc4)noc3C)cs2)cs1 |  | inconclusive: 7.87% |

| Compound | Potency | lipid storage change, negative = inhibition |
| --- | --- | --- |
| CCOc1ccc2[nH]c(=O)c(CN(Cc3nnnn3CCc3ccccc3)CC3CCCO3)cc2c1 (centres undefined) |  | inconclusive: -18.1% |
| COc1cc(C(=O)NC(=S)Nc2ccc(Cl)cn2)cc(OC)c1OC | inconclusive: 0.82 µM [activator, full curve, poor fit] |  |
| COc1ccccc1NC(=O)C(C)N1C(=O)C2CCCCC2C1=O (centres undefined) |  | inconclusive: -8.83% |
| CCN(Cc1ccc(OC)c(COC)c1)CC1CCCN(CCc2cccc(F)c2)C1 (centres undefined) |  | inconclusive: -6.34% |
| O=C(c1ccc(Cl)cc1)N1CCCCC(Cl)C1=O (centres undefined) |  | inconclusive: -14.3% |
| Oc1[nH]c2ccccc2c1N=Nc1ccc(F)cc1 | active: 20.6 µM |  |
| O=C1Nc2ccccc2C12OCCCCO2 | inconclusive: 0.731 µM [activator, full curve, poor fit] |  |
| COc1ccc(C2CC(c3cccs3)=NN2C(=S)Nc2ccccc2)cc1OC (centres undefined) |  | inconclusive: -0.664% |
| COc1ccc(-n2cc(CN(C)CCO)c(-c3cccc(F)c3)n2)cc1 | inconclusive: 29.1 µM [falling, partial curve, poor fit] |  |
| CC1(C)CC(NC(=O)C2CCCCC2C(=O)O)CC(C)(C)N1 (centres undefined) | inconclusive: 0.92 µM [falling, full curve] |  |
| Cc1ccc(-n2nc3c(=O)n(C(C)C(=O)NCc4ccc5c(c4)OCO5)nc(C)c3c2C)cc1 (centres undefined) | inconclusive: 5.8 µM [activator, single point] |  |
| O=C(CSc1nnc(Cc2cc(=O)[nH]c(=O)[nH]2)n1-c1ccc(Cl)cc1)N1CCc2ccccc21 |  | inconclusive: 12.6% |
| COc1ccc2c(c1)c(CCN1C(=O)c3ccccc3C1=O)cn2C(=O)c1ccco1 | inconclusive: 1.46 µM [activator, partial curve] |  |
| CCCCC(=O)Nc1nc2c(OC)ccc(OC)c2s1 | inconclusive: 4.11 µM [rising, full curve, poor fit] |  |
| Cc1ccccc1NC(=O)N1CCN(C/C=C/c2ccccc2)CC1 |  | inconclusive: -52.3% [cytotoxic] [at 0.00295 µM] |
| COc1cccc(NC(=O)C2CCN(c3cnccn3)CC2)c1 |  | inconclusive: -21.2% |
| COC(=O)c1ccccc1NC(=O)c1cc[n+]([O-])cc1 | inconclusive: 2.91 µM [activator, full curve] |  |
| Cc1ccc(S(=O)(=O)N2CCCCC2)cc1NC(=O)CSc1nnnn1C |  | inconclusive: 23.2% |
| CC(C)(C)NS(=O)(=O)c1ccc(OCC(=O)NCCC2=CCCCC2)cc1 |  | inconclusive: -5.92% |
| CC(C)Oc1cc(NC(=O)CS(=O)CC(=O)Nc2cccc(C(F)(F)F)c2)c(Cl)cc1Cl (centres undefined) | inconclusive: 14.6 µM [falling, partial curve] |  |
| CC(OC(=O)c1ccc(NC(=O)CC#N)cc1)C(=O)Nc1ccc(Oc2ccccc2)cc1 (centres undefined) |  | inconclusive: 40.5% |
| O=C(c1n[nH]c2ccccc12)N1CCCCC1 |  | inconclusive: 22.2% |
| O=C(COc1ccc(S(=O)(=O)N2CCOCC2)cc1)Nc1ccccc1F |  | inactive |
| COc1ccc(CC(=O)NCc2nn(-c3ccccc3)nc2C)cc1OC |  | inconclusive: 7.12% |
| O=C(Cc1cccs1)Nc1ccc(-c2nnc(-c3ccco3)o2)cc1 |  | inconclusive: -11.4% |

As a short view, part of the list above:

| Compound | Potency | lipid storage change, negative = inhibition |
| --- | --- | --- |
| Cc1ccccc1NC(=O)N1CCN(C/C=C/c2ccccc2)CC1 |  | inconclusive: -52.3% [cytotoxic] [at 0.00295 µM] |
| COc1cccc(NC(=O)C2CCN(c3cnccn3)CC2)c1 |  | inconclusive: -21.2% |

Additional structures

| Compound | Potency | lipid storage change, negative = inhibition |
| --- | --- | --- |
| Cc1ccc(OCC(=O)N/N=C\c2ccncc2)c(C)c1 | inconclusive: 13 µM [activator, partial curve, poor fit] |  |
| O=C1C(=O)N(CCO)C(c2ccc(Br)cc2)/C1=C(\O)c1ccccc1 (centres undefined) |  | inconclusive: -1.34% |
| O=C(O)c1ccc(N=N/C(=N\Nc2ccc(C(=O)O)cc2)c2ccccc2)cc1 |  | inconclusive: 61.5% |
| CCCCCCC(=O)N/N=C1\CCCc2ccccc21 |  | inconclusive: 5.66% |
| CCc1ccccc1N(CC)C(=O)C1CCN(c2ncnc3c2nc2n3CCCCC2)CC1 |  | inconclusive: -81.2% |
| NNc1nc2sc3c(c2c(=O)n1-c1ccccc1)CCCC3 |  | inconclusive: 0.519% |
| O=S(=O)(c1ccc2c(c1)nc(COc1ccc(Cl)cc1)n2CC1CCCO1)N1CCOCC1 (centres undefined) | inconclusive: 6.51 µM [activator, single point] |  |
| CCn1c(CNC(=O)COc2c(C)cccc2C)nnc1SCC(=O)Nc1nccs1 |  | inactive |
| CCN(CC)CCN(C(=O)c1ccc2ncsc2c1)c1nc2cc3c(cc2s1)OCO3 | inconclusive: 18.4 µM [activator, partial curve, poor fit] |  |
| O=C(CN1CCN(C(=O)c2ccco2)CC1)Nc1cccc(S(=O)(=O)N2CCCC2)c1 | inconclusive: 0.146 µM [falling, full curve, poor fit] |  |
| Cc1ccc(/C=N/NC(=O)CNC(=O)c2ccc(S(=O)(=O)N(C)C)cc2)cc1 |  | inconclusive: 6.24% |
| COc1ccc(CN2CCC(c3nc4ccc(Cl)cc4[nH]3)CC2)cc1 |  | inconclusive: 12.3% |
| COc1ccc(N(CC(=O)NCCSc2ccccc2)S(C)(=O)=O)cc1 |  | inconclusive: -0.798% |
| CN(C)S(=O)(=O)c1cccc(NC(=O)c2cc([N+](=O)[O-])ccc2N2CCCCC2)c1 | inconclusive: 7.31 µM [activator, partial curve, poor fit] |  |
| O=C(COc1coc(CN2CCc3ccccc3C2)cc1=O)Nc1cccc(Cl)c1 |  | inconclusive |
| Cc1nc(N2CCOCC2)[nH]c(=O)c1CCC(C)C | inconclusive: 29.1 µM [falling, single point] |  |
| c1ccc2c(c1)C(=NC1CCCCC1)NC2=NC1CCCCC1 |  | inconclusive: 2.83% |
| COC(=O)c1ccccc1NC(=O)c1cc(-c2ccco2)on1 | inconclusive: 6.51 µM [activator, single point] |  |
| CCN(c1cccc(C)c1)c1nc2ccsc2c(=O)s1 |  | inconclusive: 125% |
| O=C(Nc1ccc(F)cc1)c1cccc(N2C(=O)C3C4C=CC(C4)C3C2=O)c1 (centres undefined) |  | inactive |
| O=C(C1CCC(=O)N(C2CCCC2)C1)N1CCC(Oc2ccccc2Cl)CC1 (centres undefined) | inconclusive: 6.51 µM [falling, full curve, poor fit] |  |
| CCCOc1ccc2[nH]c(C(=O)N/N=C/c3cc(OC)c(OC)c(OC)c3)cc2c1 |  | inconclusive: -35.2% |
| COc1ccccc1CN(CC(=O)NCc1ccc2c(c1)OCO2)C(=O)c1csnn1 | inconclusive: 29.1 µM [activator, single point] |  |
| O=C(CCCN1C(=O)c2ccccc2C1=O)Oc1ccc(F)cc1 | inconclusive: 3.66 µM [cytotoxic, full curve, poor fit] |  |

3 entries from above, set out differently:
O=C(COc1coc(CN2CCc3ccccc3C2)cc1=O)Nc1cccc(Cl)c1
  lipid storage change, negative = inhibition: inconclusive
Cc1nc(N2CCOCC2)[nH]c(=O)c1CCC(C)C
  Potency: inconclusive: 29.1 µM [falling, single point]
c1ccc2c(c1)C(=NC1CCCCC1)NC2=NC1CCCCC1
  lipid storage change, negative = inhibition: inconclusive: 2.83%
